Measurements from PMC8790522.
No constants are given. Whether binding was seen depends on the method and setting. In cells and extracts the contact can be indirect. Some entries that bind do so weakly or less than the wild type.

Protein sequences, listed by entry. Tags and fused reporters are not part of them.
UniProt Q04695: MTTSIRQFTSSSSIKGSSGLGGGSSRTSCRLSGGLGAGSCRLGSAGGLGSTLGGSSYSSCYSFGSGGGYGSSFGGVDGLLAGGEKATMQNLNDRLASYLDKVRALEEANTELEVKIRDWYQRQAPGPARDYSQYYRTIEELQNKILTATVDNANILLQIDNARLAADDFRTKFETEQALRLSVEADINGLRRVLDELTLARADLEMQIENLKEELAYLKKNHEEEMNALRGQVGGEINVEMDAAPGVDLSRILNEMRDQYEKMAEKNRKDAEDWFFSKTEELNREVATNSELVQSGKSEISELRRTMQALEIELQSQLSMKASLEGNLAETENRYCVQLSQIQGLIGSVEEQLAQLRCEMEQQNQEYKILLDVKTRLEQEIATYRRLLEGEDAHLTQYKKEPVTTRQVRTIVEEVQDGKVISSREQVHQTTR
UniProt P37231: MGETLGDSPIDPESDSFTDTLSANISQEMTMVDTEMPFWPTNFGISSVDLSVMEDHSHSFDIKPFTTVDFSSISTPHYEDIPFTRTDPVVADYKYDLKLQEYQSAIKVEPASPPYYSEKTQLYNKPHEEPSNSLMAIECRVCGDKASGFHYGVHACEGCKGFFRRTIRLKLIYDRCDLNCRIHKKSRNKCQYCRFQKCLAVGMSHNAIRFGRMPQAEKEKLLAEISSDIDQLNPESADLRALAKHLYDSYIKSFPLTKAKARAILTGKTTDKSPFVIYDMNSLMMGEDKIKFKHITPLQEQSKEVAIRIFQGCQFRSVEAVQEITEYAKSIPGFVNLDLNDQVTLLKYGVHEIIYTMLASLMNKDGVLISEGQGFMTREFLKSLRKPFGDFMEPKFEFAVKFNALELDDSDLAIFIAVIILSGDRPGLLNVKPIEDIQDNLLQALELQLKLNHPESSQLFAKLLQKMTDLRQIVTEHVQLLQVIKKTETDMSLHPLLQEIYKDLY

Biological target: Keratin 17 (human (endogenous in HaCaT)) (UniProt Q04695)
Experiment: co-IP; whole-cell lysates of treated HaCaT cells incubated with anti-K17 (sc-393002) or anti-IgG antibody for 3 h, then with Protein A/G PLUS-Agarose at 4°C overnight; four PBS washes; SREBP-1 and PPARγ detected by Western blot

binding: binds
Substance: Peroxisome proliferator-activated receptor gamma (from UniProt P37231 1-505)
